Measured data: PubChem BioAssay AID1159584 (Peter MacCallum Cancer Centre, 2016)
Shown is an unselected part of about 18,000 deposited reagents. Not all columns of the deposit are shown. Not given: the amount of reagent, the time to read-out.

- Assay: 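Genes whose loss is lethal only together with E-cadherin loss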 (primary screen)
- System: human MCF10A breast epithelial cells, parental and CDH1-null
- Knock-down reagent: siRNA against human genes
- Read-out: 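Cell viability by CellTiter-Glo ATP luminescence, each line scaled to the mean of mock wells across plates, then CDH1-null over parental ratio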
- Scale: CDH1-null / parental viability ratio: higher = CDH1-null cells survive relatively better than parental

| gene | CDH1-null / parental viability ratio |
| --- | --- |
| ANKEF1 | 0.74 |
| IL5 | 1.33 |
| TMEM121 | 0.84 |
| ARTN | 1.23 |
| RHAG | 1 |
| CDC42EP3 | 1.22 |
| PRRG1 | 0.84 |
| CDO1 | 0.86 |
| CT47A10 | 1.23 |
| ZNF169 | 1.25 |
| PALB2 | 1.02 |
| IFT20 | 1.01 |
| RCAN2 | 1 |
| LYPD6 | 1.03 |
| PPP1R1A | 1.64 |
| PEBP4 | 0.96 |
| TYMS | 1.21 |
| SEPSECS | 0.94 |
| BHMT2 | 0.85 |
| MMP17 | 1.04 |
| SERHL2 | 1.03 |
| BAG4 | 1 |
| PGC | 1.14 |
| ZCCHC24 | 1.18 |
| GLE1 | 0.85 |
| H2AC25 | 1 |
| MNT | 1.07 |
| PDIA6 | 1.01 |
| H2AZ1 | 0.94 |
| TNPO3 | 1.5 |
| XRCC4 | 1.1 |
| TBC1D19 | 1.2 |
| NSMCE2 | 1.11 |
| CALN1 | 1.15 |

Targets listed so far whose gene name starts with R or r:
| gene | CDH1-null / parental viability ratio |
| --- | --- |
| RHAG | 1 |
| RCAN2 | 1 |

The list goes on:
| gene | CDH1-null / parental viability ratio |
| --- | --- |
| SERPINB11 | 1.25 |
| DNAJB1 | 1.29 |
| CA5A | 0.97 |
| SPSB3 | 1 |
| C10orf95 | 0.7 |
| KIF25 | 1.38 |
| PCDHA12 | 1.06 |
| ARK2N | 1.1 |
| KCTD2 | 1.12 |
| HDAC4 | 0.84 |
| KCNJ9 | 1.23 |
| ENO1 | 0.84 |
| ITPKB | 0.57 |
| POLR2K | 0.86 |
| SLCO1B1 | 1.07 |
| EXO1 | 1.05 |
| OPN5 | 0.64 |
| GJA9 | 0.87 |
| CBLL1 | 0.79 |
| HSPB2 | 0.99 |
| MAP3K7CL | 0.7 |
| DEFB103B | 1.14 |
| ROMO1 | 0.88 |
| LEPROTL1 | 1.02 |
| TEX47 | 1.34 |
| MEPE | 0.92 |
| SLC4A4 | 1.12 |
| NUDT6 | 1.13 |
| LRFN4 | 1.27 |
| HMGA1 | 0.98 |
| SBNO2 | 1 |
| MIA | 0.85 |
| TMEM165 | 1.21 |
| KCNJ3 | 0.98 |
| ATP11A | 1.06 |
| UCK2 | 1.04 |
| SHISA6 | 0.81 |
| NR2C1 | 0.86 |
| HAUS6 | 1.06 |
| KIF26A | 1.06 |
| CD163L1 | 0.82 |
| MYLIP | 1.2 |
| CASC3 | 1.29 |
| PADI4 | 0.94 |
| PTP4A2 | 1.38 |
| BLOC1S4 | 0.92 |
| PITX2 | 1.11 |
| CXCL11 | 0.98 |
| ZNF10 | 1.3 |
| NOL9 | 1.09 |
| TCL6 | 0.97 |
| PPM1B | 1.6 |
| LCE3C | 1.69 |
